Measurements reported in doi:10.1101/760967.
No constants are given. Whether binding was seen depends on the method and setting. Binding seen in cells or lysates may run through a third protein. These calls come from enrichment with a bait or labelling near it, and not all partners need be listed. Blank lines part the entries; values can stand above or below the molecule they belong to.

By UniProt entry, the sequences of proteins in these tests, tags left out.
UniProt Q8TB72: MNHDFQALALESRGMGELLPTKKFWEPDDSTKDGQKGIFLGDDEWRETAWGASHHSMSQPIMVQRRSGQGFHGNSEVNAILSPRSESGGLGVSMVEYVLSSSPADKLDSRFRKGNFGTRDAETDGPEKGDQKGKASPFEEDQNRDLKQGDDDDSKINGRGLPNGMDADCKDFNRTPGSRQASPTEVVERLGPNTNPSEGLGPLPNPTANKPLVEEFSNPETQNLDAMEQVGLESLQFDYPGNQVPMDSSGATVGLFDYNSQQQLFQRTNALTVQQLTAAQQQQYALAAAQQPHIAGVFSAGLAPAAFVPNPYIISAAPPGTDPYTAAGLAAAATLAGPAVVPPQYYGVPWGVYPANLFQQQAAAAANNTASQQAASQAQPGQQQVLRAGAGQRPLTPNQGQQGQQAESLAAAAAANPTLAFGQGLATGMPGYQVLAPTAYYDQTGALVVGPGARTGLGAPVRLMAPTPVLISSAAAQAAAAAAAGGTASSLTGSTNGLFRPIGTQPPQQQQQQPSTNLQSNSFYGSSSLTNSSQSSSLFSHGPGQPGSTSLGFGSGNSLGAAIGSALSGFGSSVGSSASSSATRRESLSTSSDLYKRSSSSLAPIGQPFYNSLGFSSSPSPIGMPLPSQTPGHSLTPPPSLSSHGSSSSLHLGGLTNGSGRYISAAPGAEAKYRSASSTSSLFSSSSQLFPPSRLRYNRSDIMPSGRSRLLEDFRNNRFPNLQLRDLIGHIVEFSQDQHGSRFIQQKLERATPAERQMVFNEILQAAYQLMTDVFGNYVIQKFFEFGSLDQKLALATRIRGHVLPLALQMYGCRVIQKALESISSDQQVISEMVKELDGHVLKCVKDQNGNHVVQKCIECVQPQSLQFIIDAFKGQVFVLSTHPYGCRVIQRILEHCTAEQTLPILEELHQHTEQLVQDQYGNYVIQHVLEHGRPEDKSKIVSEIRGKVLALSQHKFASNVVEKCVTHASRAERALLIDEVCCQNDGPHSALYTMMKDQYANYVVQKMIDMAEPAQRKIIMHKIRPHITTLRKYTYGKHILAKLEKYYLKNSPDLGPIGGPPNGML
UniProt Q14671: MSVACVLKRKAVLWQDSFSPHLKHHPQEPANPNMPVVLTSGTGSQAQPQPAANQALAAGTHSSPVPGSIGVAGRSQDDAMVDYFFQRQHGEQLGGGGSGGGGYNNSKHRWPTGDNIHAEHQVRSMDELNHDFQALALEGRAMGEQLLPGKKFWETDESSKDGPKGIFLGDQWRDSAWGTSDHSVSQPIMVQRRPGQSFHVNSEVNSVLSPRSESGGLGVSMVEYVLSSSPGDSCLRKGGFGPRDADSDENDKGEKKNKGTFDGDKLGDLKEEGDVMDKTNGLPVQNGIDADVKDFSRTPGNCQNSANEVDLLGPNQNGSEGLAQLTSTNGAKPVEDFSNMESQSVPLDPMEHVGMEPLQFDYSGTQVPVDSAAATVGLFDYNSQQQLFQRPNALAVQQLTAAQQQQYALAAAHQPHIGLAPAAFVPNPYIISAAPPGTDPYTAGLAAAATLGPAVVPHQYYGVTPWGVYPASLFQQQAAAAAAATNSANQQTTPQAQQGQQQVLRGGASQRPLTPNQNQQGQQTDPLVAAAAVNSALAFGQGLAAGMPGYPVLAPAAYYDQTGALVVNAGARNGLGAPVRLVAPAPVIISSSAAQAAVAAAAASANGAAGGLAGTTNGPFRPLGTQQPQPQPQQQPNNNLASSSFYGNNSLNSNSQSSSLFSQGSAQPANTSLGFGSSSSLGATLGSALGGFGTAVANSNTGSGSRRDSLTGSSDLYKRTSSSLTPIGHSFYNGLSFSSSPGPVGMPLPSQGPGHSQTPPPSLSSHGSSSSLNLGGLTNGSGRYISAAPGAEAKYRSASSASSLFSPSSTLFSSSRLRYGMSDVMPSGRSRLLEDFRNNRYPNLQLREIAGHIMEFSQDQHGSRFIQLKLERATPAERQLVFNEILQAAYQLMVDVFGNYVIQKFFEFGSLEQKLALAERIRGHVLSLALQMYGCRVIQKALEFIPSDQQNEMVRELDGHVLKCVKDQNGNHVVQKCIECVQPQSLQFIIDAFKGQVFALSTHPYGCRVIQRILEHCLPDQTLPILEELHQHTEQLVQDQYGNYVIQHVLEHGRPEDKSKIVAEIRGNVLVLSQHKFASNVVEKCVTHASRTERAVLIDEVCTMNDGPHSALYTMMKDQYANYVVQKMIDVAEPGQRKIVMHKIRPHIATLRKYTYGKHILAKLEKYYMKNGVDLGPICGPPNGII
UniProt P51114: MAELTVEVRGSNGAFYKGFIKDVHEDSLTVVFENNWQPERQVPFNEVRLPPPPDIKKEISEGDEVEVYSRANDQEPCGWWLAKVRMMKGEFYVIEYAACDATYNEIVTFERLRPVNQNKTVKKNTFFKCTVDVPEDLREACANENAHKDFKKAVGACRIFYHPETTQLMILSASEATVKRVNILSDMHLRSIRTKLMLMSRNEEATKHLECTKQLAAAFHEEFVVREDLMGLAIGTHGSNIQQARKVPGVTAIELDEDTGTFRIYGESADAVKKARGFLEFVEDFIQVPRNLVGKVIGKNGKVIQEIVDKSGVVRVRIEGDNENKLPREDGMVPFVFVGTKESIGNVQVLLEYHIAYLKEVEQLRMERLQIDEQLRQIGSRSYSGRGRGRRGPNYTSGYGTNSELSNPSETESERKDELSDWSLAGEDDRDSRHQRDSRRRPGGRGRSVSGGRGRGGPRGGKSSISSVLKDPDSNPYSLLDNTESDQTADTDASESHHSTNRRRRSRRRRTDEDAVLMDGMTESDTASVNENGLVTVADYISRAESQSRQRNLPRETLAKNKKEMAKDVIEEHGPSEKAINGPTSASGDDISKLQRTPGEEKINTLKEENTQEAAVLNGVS
UniProt O00425: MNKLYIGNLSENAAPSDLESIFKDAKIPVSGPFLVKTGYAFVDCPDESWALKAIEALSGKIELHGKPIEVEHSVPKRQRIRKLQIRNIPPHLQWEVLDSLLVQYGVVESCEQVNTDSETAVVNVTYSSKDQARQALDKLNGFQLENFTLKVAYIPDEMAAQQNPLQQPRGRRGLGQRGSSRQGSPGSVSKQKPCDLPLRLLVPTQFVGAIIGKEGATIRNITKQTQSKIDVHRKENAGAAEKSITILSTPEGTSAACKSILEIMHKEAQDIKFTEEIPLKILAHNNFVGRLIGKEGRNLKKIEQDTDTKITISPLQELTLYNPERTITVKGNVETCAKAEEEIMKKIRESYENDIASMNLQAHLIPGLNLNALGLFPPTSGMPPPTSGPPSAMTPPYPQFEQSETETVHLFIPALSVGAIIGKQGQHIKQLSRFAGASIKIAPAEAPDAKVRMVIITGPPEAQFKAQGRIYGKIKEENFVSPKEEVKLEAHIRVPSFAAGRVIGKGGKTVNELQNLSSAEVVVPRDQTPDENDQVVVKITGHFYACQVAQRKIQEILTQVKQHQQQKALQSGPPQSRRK
UniProt Q07955: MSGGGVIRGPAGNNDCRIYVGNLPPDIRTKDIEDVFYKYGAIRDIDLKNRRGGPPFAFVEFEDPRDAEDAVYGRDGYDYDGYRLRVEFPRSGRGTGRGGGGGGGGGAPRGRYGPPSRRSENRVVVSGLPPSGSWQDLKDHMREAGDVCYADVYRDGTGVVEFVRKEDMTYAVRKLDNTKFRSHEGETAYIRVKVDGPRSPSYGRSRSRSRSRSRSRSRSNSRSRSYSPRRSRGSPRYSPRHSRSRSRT
UniProt Q16630: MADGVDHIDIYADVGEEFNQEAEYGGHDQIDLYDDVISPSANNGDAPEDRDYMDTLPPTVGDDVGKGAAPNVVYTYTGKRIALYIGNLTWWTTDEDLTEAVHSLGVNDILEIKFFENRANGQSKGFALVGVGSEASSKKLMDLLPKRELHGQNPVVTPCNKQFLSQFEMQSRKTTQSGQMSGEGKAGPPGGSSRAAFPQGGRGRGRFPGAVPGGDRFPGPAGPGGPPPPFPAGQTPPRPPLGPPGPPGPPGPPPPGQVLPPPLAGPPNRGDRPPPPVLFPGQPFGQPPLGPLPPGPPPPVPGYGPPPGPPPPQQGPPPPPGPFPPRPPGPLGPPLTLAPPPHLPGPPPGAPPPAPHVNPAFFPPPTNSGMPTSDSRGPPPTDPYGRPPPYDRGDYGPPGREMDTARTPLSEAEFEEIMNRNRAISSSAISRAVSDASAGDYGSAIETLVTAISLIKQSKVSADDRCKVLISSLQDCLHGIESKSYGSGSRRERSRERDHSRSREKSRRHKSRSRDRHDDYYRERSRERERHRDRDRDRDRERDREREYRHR
UniProt P35637: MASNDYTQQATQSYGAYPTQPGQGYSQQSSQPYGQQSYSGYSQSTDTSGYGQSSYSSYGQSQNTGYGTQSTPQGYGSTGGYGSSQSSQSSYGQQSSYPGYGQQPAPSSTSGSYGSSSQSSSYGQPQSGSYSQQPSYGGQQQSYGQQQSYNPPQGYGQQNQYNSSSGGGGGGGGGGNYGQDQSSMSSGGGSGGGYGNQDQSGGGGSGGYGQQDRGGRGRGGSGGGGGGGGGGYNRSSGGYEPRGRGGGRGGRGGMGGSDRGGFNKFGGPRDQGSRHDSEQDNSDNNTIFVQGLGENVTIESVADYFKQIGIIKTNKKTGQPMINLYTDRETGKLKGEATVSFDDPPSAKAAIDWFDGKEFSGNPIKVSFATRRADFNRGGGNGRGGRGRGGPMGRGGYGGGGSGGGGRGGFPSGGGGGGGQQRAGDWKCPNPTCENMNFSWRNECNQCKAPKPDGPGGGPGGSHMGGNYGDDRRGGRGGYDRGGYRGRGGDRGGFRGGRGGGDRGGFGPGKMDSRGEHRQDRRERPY
UniProt P67809: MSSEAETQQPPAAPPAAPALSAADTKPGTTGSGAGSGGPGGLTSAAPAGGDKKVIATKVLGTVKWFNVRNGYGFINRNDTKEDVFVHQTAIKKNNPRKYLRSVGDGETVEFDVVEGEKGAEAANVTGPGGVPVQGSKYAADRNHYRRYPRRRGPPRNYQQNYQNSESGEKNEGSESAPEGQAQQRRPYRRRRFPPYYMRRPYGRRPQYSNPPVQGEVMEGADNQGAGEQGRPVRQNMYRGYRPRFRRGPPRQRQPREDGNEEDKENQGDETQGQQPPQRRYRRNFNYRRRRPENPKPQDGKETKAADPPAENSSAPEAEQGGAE
UniProt P51116: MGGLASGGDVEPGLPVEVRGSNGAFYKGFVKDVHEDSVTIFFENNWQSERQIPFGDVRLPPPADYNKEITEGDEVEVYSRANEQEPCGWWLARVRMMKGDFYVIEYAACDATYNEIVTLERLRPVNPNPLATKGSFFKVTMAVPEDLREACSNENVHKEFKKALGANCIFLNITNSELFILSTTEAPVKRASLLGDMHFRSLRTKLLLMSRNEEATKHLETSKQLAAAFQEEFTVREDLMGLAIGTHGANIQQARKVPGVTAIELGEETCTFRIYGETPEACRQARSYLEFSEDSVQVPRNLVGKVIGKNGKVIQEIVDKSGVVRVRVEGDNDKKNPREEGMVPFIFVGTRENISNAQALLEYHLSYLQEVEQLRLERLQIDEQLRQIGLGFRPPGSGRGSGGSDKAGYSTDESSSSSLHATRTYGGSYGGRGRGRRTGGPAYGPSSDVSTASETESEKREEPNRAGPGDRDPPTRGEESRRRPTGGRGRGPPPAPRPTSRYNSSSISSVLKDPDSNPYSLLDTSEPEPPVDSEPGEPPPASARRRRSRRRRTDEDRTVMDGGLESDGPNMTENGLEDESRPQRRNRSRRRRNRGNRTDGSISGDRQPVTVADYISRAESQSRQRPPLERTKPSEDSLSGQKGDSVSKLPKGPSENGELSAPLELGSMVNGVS
UniProt P26599: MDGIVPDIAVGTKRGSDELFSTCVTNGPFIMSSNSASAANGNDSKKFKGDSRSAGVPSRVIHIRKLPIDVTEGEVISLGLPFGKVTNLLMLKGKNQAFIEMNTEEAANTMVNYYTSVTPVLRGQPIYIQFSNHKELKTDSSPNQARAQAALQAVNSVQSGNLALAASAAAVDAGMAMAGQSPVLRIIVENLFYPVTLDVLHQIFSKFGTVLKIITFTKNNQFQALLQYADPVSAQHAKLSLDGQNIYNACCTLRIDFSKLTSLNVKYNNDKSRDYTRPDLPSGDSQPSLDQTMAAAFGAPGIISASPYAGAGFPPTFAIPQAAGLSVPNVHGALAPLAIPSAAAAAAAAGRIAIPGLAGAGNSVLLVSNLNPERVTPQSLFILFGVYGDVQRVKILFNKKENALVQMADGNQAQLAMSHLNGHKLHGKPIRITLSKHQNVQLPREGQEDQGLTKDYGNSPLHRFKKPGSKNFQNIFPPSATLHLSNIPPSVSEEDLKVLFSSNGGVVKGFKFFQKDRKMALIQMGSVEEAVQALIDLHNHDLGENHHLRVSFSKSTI

Columns and labels:
[1] = biological target: PUM2 (human (endogenous in TCam-2)) (UniProt Q8TB72); test: affinity purification with mass spectrometry
[2] = biological target: PUM1 (human (endogenous in TCam-2)) (UniProt Q14671); test: affinity purification with mass spectrometry

binding [1]: binds
Molecule: G3BP1 (from UniProt Q13283 1-466)

binding [1]: binds
binding [2]: binds
Molecule: FXR1 (from UniProt P51114 1-621)

binding [2]: binds
Molecule: IGF2BP3 (from UniProt O00425 1-579)

binding [1]: binds
Molecule: SRSF1 (from UniProt Q07955 1-248)

binding [2]: binds
Molecule: CPSF6 (from UniProt Q16630 1-551)

binding [2]: binds
Molecule: FUS (from UniProt P35637 1-526)

binding [2]: binds
Molecule: YBX1 (from UniProt P67809 1-324)

binding [1]: binds
binding [2]: binds
Molecule: FXR2 (from UniProt P51116 1-673)

binding [1]: binds
binding [2]: binds
Molecule: PABPC1 (from UniProt P11940 1-636)

binding [2]: binds
Molecule: HNRNPK (from UniProt P61978 1-463)

binding [1]: binds
Molecule: PTBP1 (from UniProt P26599 1-557)

binding [1]: binds
B1: SRSF7 (protein, UniProt Q16629 1-238)
chain: MSRYGRYGGETKVYVGNLGTGAGKGELERAFSYYGPLRTVWIARNPPGFAFVEFEDPRDAEDAVRGLDGKVICGSRVRVELSTGMPRRSRFDRPPARRPFDPNDRCYECGEKGHYAYDCHRYSRRRRSRSRSRSHSRSRGRRYSRSRSRSRGRRSRSASPRRSRSISLRRSRSASLRRSRSGSIKGSRYFQSPSRSRSRSRSISRPRSSRSKSRSPSPKRSRSPSGSPRRSASPERMD

binding [1]: binds
B2: G3BP2 (protein, UniProt Q9UN86 1-482)
chain: MVMEKPSPLLVGREFVRQYYTLLNKAPEYLHRFYGRNSSYVHGGVDASGKPQEAVYGQNDIHHKVLSLNFSECHTKIRHVDAHATLSDGVVVQVMGLLSNSGQPERKFMQTFVLAPEGSVPNKFYVHNDMFRYEDEVFGDSEPELDEESEDEVEEEQEERQPSPEPVQENANSGYYEAHPVTNGIEEPLEESSHEPEPEPESETKTEELKPQVEEKNLEELEEKSTTPPPAEPVSLPQEPPKAFSWASVTSKNLPPSGTVSSSGIPPHVKAPVSQPRVEAKPEVQSQPPRVREQRPRERPGFPPRGPRPGRGDMEQNDSDNRRIIRYPDSHQLFVGNLPHDIDENELKEFFMSFGNVVELRINTKGVGGKLPNFGFVVFDDSEPVQRILIAKPIMFRGEVRLNVEEKKTRAARERETRGGGDDRRDIRRNDRGPGGPRGIVGGGMMRDRDGRGPPPRGGMAQKLGSGRGTGQMEGRFTGQRR

binding [2]: binds
B3: CPSF7 (protein, UniProt Q8N684 1-471)
chain: MSEGVDLIDIYADEEFNQDPEFNNTDQIDLYDDVLTATSQPSDDRSSSTEPPPPVRQEPSPKPNNKTPAILYTYSGLRNRRAAVYVGSFSWWTTDQQLIQVIRSIGVYDVVELKFAENRANGQSKGYAEVVVASENSVHKLLELLPGKVLNGEKVDVRPATRQNLSQFEAQARKRECVRVPRGGIPPRAHSRDSSDSADGRATPSENLVPSSARVDKPPSVLPYFNRPPSALPLMGLPPPPIPPPPPLSSSFGVPPPPPGIHYQHLMPPPPRLPPHLAVPPPGAIPPALHLNPAFFPPPNATVGPPPDTYMKASAPYNHHGSRDSGPPPSTVSEAEFEDIMKRNRAISSSAISKAVSGASAGDYSDAIETLLTAIAVIKQSRVANDERCRVLISSLKDCLHGIEAKSYSVGASGSSSRKRHRSRERSPSRSRESSRRHRDLLHNEDRHDDYFQERNREHERHRDRERDRHH

binding [2]: binds
B4: LIN28A (protein, UniProt Q9H9Z2 1-209)
chain: MGSVSNQQFAGGCAKAAEEAPEEAPEDAARAADEPQLLHGAGICKWFNVRMGFGFLSMTARAGVALDPPVDVFVHQSKLHMEGFRSLKEGEAVEFTFKKSAKGLESIRVTGPGGVFCIGSERRPKGKSMQKRRSKGDRCYNCGGLDHHAKECKLPPQPKKCHFCQSISHMVASCPLKAQQGPSAQGKPTYFREEEEEIHSPTLLPEAQN

binding [1]: binds
binding [2]: binds
B5: MATR3 (protein, UniProt P43243 1-847)
chain: MSKSFQQSSLSRDSQGHGRDLSAAGIGLLAAATQSLSMPASLGRMNQGTARLASLMNLGMSSSLNQQGAHSALSSASTSSHNLQSIFNIGSRGPLPLSSQHRGDADQASNILASFGLSARDLDELSRYPEDKITPENLPQILLQLKRRRTEEGPTLSYGRDGRSATREPPYRVPRDDWEEKRHFRRDSFDDRGPSLNPVLDYDHGSRSQESGYYDRMDYEDDRLRDGERCRDDSFFGETSHNYHKFDSEYERMGRGPGPLQERSLFEKKRGAPPSSNIEDFHGLLPKGYPHLCSICDLPVHSNKEWSQHINGASHSRRCQLLLEIYPEWNPDNDTGHTMGDPFMLQQSTNPAPGILGPPPPSFHLGGPAVGPRGNLGAGNGNLQGPRHMQKGRVETSRVVHIMDFQRGKNLRYQLLQLVEPFGVISNHLILNKINEAFIEMATTEDAQAAVDYYTTTPALVFGKPVRVHLSQKYKRIKKPEGKPDQKFDQKQELGRVIHLSNLPHSGYSDSAVLKLAEPYGKIKNYILMRMKSQAFIEMETREDAMAMVDHCLKKALWFQGRCVKVDLSEKYKKLVLRIPNRGIDLLKKDKSRKRSYSPDGKESPSDKKSKTDGSQKTESSTEGKEQEEKSGEDGEKDTKDDQTEQEPNMLLESEDELLVDEEEAAALLESGSSVGDETDLANLGDVASDGKKEPSDKAVKKDGSASAAAKKKLKKVDKIEELDQENEAALENGIKNEENTEPGAESSENADDPNKDTSENADGQSDENKDDYTIPDEYRIGPYQPNVPVGIDYVIPKTGFYCKLCSLFYTNEEVAKNTHCSSLPHYQKLKKFLNKLAEERRQKKET
